No constants are given. Whether binding was seen depends on the method and setting. Sequences can lack the tags named with a protein.

The experiment concerns the target RudS_KT (tRNA 4-thiouridine desulfidase, TudS-DUF1722 fusion protein from Pseudomonas putida KT2440, PP_0741 gene product) (Pseudomonas putida KT2440) (UniProt Q88PV7). Description: SEC; analytical gel filtration, Superose 12 10/300 GL, 50 mM Tris-HCl pH 8, 500 mM NaCl, 10% (w/v) glycerol, aerobic conditions; calibrated with standards of 29-200 kDa; repeated three times; both purified. For orientation: In gel filtration, larger molecules generally elute earlier.

B1: RudS_KT (tRNA 4-thiouridine desulfidase, TudS-DUF1722 fusion protein from Pseudomonas putida KT2440, PP_0741 gene product) (enzyme, UniProt Q88PV7 1-322)
chain: MHDPSAHSKPRIAISACLTGHSVRYNGGHKASDLCRKQLEQHFDWLPVCPEVAIGLGVPRDPIRLVGNPEQPEVVGTRDPGKDLTDPLRTYGEQMANELDDICGYIFMQKSPSCGLERVKVYQDNGHPAVHGGRGVYAQAFCALRPDLPVEEEGRLHDPVLRENFISRVYAYADWQRLLAEGLNRGALVRFHSRYKYLLMANNPQAYRTLGRLLGSMSKADEPQSIGPRYFSQLMQALRRCASRGTHSNVLQHLSGYFKDALTQQDKAELQAVIGQYQQGVVPLVVPLTLLKHHLRKHPDPYLQQQAYLQPHPESLGLRNAV
Take B1: the binding result is “no binding”.
